Data source: PubChem BioAssay AID1259405 (NCATS, 2018)
Shown is one part, drawn at random, of about 50,000 reagents. Over the whole deposit, about 4,000 (8%) were called active. 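Mouse siRNA library applied to hamster cells; one well for each siRNA.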 Reagents against one gene are numbered here.

Assay: 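Mouse-designed siRNAs used to find CHO productivity engineering targets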 (primary screen)
System: Chinese hamster CHO-K1 ovary cells with stable secreted eGFP expression
Knock-down reagent: single siRNA against mouse genes, 0.8 pmol siRNA per well (2 µl of 400 nM stock)
Time to read-out: 3 days
Detection: 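Percent of the per-plate non-targeting control median for intracellular GFP per well by laser scanning cytometry and for cell viability by ATP luminescence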
Scale: GFP, % of control: higher = more GFP per well, higher productivity; viability (ATP), % of control: higher = more viable cells (more ATP)
Rule for the call: 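a knock-down is called active if GFP reaches 120% or more of non-targeting control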

gene knocked down | siRNA no. | GFP, % of control | viability (ATP), % of control | outcome
Strada (GeneID 72149) | 1 | 124 | 102 | active
Strada (GeneID 72149) | 2 | 52.3 | 52 | inactive
Strada (GeneID 72149) | 3 | 111 | 87.5 | inactive
Kcnc3 (GeneID 16504) | 1 | 67.2 | 65.2 | inactive
Kcnc3 (GeneID 16504) | 2 | 97 | 69.4 | inactive
Kcnc3 (GeneID 16504) | 3 | 85 | 74.5 | inactive
Cnga2 (GeneID 12789) | 1 | 137 | 117 | active
Cnga2 (GeneID 12789) | 2 | 121 | 105 | active
Cnga2 (GeneID 12789) | 3 | 52.5 | 58.8 | inactive
Tpmt (GeneID 22017) | 1 | 50.9 | 58 | inactive
Tpmt (GeneID 22017) | 2 | 76.8 | 82.2 | inactive
Tpmt (GeneID 22017) | 3 | 187 | 107 | active
Dclre1c (GeneID 227525) | 1 | 80.1 | 90.5 | inactive
Dclre1c (GeneID 227525) | 2 | 123 | 77.7 | active
Dclre1c (GeneID 227525) | 3 | 97.8 | 66.3 | inactive
Zfp869 (GeneID 66869) | 1 | 61.7 | 75 | inactive
Zfp869 (GeneID 66869) | 2 | 56.8 | 51.9 | inactive
Zfp869 (GeneID 66869) | 3 | 94.2 | 77.4 | inactive
Defb14 (GeneID 244332) | 1 | 43.1 | 43.9 | inactive
Defb14 (GeneID 244332) | 2 | 86.9 | 84.1 | inactive
Defb14 (GeneID 244332) | 3 | 87.9 | 70 | inactive
Carmil1 (GeneID 68732) | 1 | 64.9 | 72.3 | inactive
Carmil1 (GeneID 68732) | 2 | 101 | 80.7 | inactive
Carmil1 (GeneID 68732) | 3 | 13.4 | 21.4 | inactive
Itfg1 (GeneID 71927) | 1 | 96.3 | 80.7 | inactive
Itfg1 (GeneID 71927) | 2 | 83.5 | 44 | inactive
Tyr (GeneID 22173) | 1 | 163 | 81.9 | active
Tyr (GeneID 22173) | 2 | 82.3 | 68 | inactive
Tyr (GeneID 22173) | 3 | 85.9 | 69.5 | inactive
Akr1c6 (GeneID 83702) | 1 | 84.8 | 77.3 | inactive
Akr1c6 (GeneID 83702) | 2 | 76.7 | 64.6 | inactive
Akr1c6 (GeneID 83702) | 3 | 94.6 | 83.4 | inactive
Foxn1 (GeneID 15218) | 1 | 85.7 | 88.7 | inactive
Foxn1 (GeneID 15218) | 2 | 75.2 | 66.5 | inactive

Records listed so far whose target name begins with S or s:
gene knocked down | siRNA no. | GFP, % of control | viability (ATP), % of control | outcome
Strada (GeneID 72149) | 1 | 124 | 102 | active
Strada (GeneID 72149) | 2 | 52.3 | 52 | inactive
Strada (GeneID 72149) | 3 | 111 | 87.5 | inactive
